# The list shows a part of the results. Shown are side measurements of this screen, not its main read-out; they come without a call. The list favours compounds with an active or inconclusive main result. Potencies come from curve fits of mixed quality, noted in brackets. Numbered stars: 1 amine (or outer) side, 2 acyl side, 3 side chain; on linkers, the order of the positions; unused ones are H or OH. Square brackets hold non-standard residues; d marks the D form. Peptide text beside a SMILES is read from it. X2 = CCC[C@@H](N[*:1])[C@H](C)C(=O)O[C@H](C(=O)[*:2])[C@@H](C)CC; X1 = CC(N[*:1])C(=O)C(C)(C)C(=O)[*:2]; NMeY = CN[C@@H](Cc1ccc(O)cc1)C(=O)O; NMeL = CN[C@@H](CC(C)C)C(=O)O; NMeV = CN[C@H](C(=O)O)C(C)C; NMeA = CN[C@@H](C)C(=O)O
# Test: qHTS Assay to Find Inhibitors of Chronic Active B-Cell Receptor Signaling
# Conditions: ABC-DLBCL IkBa-CBG/CBR reporter, luminescence ratio (green luciferase fused to IkBa over red control in TMD8 lymphoma cells), 4 h
# Procedure, shortened: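 Doxycycline induced both beetle luciferases in TMD8 lymphoma cells; IKK-driven degradation limits the IkappaBalpha-fused green signal, while red luminescence normalises for cell number and nonspecific effects. Compounds tested up to 46 uM, 4 hrs.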
# [1] = measured here: CBR red luminescence, cell number
# [2] = measured here: IkBa-CBG green luminescence
Structure (SMILES),AC50 [1],AC50 [2]
CCOC(=O)C(CC)Sc1nnc2[nH]c(=O)cc(C)n12 (stereo unspecified),"7.94 µM [rising, partial curve, poor fit]",
COC(=O)c1ccc(CNC(=O)c2ccc(OCC(=O)N3CCOCC3)c(OC)c2)cc1,"0.58 µM [rising, partial curve, poor fit]",
CCCCC(C(=O)NC1CCCC1)N(C(=O)c1snc(C(N)=O)c1N)c1ccc(OCC)cc1 (stereo unspecified),"0.794 µM [falling, full curve, poor fit]",
CCCc1cc2c(=O)c(-c3ccccn3)c(C)oc2cc1O,"31.6 µM [rising, single point]",
O=C(CSC1=NS(=O)(=O)c2ccccc2N1)Nc1nccs1,"8.2 µM [falling, partial curve, poor fit]",
Nc1ccccc1C(=O)NNC(=O)C(=O)/C=C(\O)c1ccccc1,"2 µM [falling, full curve]",
CSC1=NSC2=NC(=O)/C(=C/c3coc4ccccc4c3=O)C(=N)N12,"14.6 µM [falling, partial curve]",
O=C(c1ccccc1F)N(Cc1cccnc1)Cc1cc2cc3c(cc2[nH]c1=O)OCCO3,"35.5 µM [rising, single point]",
O=C(Nc1ccc(Cl)cc1)c1ccc(Br)cc1F,"15.8 µM [falling, single point]",
NC(=O)NC(=O)COC(=O)c1ccc2noc(-c3ccccc3)c2c1,"11.2 µM [falling, partial curve, poor fit]",
Cc1ccccc1NC1=C(Cl)C(=O)OC1OC(=O)c1ccccc1C (stereo unspecified),"35.5 µM [falling, single point]",
O=C(NCC(=O)N1CCCC1)c1ccc(Br)cc1,"15.8 µM [rising, partial curve, poor fit]",
CCN(C(=O)c1cc2cc(OC)ccc2oc1=O)c1ccccc1,"3.66 µM [rising, full curve, poor fit]",
Cc1cccc(Cn2c(N(C)CCO)nc3c2c(=O)[nH]c(=O)n3C)c1,"6.51 µM [rising, single point]",
CCOC(=O)N1CCC(N2C(=O)c3ccccc3C2Nc2c(C)cccc2C)CC1 (stereo unspecified),"0.58 µM [falling, partial curve, poor fit]",
COc1ccc(/C=N/Nc2nnc(C)n2N)cc1OC,"35.5 µM [falling, single point]",
COc1cc(C)nc(OCCNS(=O)(=O)c2cc(C)ccc2C)n1,"0.651 µM [falling, full curve, poor fit]",
CCC[C@H]1NC(=O)[C@H](C)N(C)C(=O)C(C)(C)C(=O)C(C)NC(=O)[C@H](Cc2ccc(OC)cc2)N(C)C(=O)[C@H](C(C)C)N(C)C(=O)CNC(=O)[C@H](CC(C)C)N(C)C(=O)CNC(=O)[C@H]([C@@H](C)CC)OC(=O)[C@H]1C (stereo partly specified) (cyclo(G[NMeL]G[NMeV][NMeY](Me)[X1][NMeA][X2])),"0.259 µM [rising, full curve, poor fit]",
Cc1ccccc1NC(=S)NCCSc1ccc(Cl)cc1,"6.31 µM [rising, single point]",
O=C(N/N=C/c1cn(-c2cccs2)nc1-c1ccccc1)c1ccccc1Cl,"11.6 µM [falling, partial curve]","3.66 µM [rising, full curve, poor fit]"

Structure (SMILES),AC50 [1],AC50 [2]
CCc1ccc(NC(=O)CSc2nc3[nH]ncc3c(=O)[nH]2)cc1,"15.8 µM [falling, partial curve, poor fit]",
CCOc1cc(/C=C2\SC(=O)N=C2N)ccc1O,"11.6 µM [falling, partial curve]",
Cc1cccc(C(=O)Nc2sc3c(c2C(=O)O)CCCC3)c1,"0.282 µM [falling, full curve]",
COc1ccc(-n2c3c(cc(C(=O)Nc4cccc(C)n4)c2=O)C(=O)CC(C)(C)C3)cc1,"22.4 µM [falling, single point]",
O=[N+]([O-])c1cccc(C2NCC(c3ccccc3Cl)c3c2[nH]c2ccccc32)c1 (stereo unspecified),"11.2 µM [falling, partial curve]",
CCCCCCCC[n+]1cccc2c3ccccc3ccc21,"10 µM [falling, partial curve]","12.6 µM [rising, partial curve, poor fit]"
CCNc1nc(Oc2ccc(C(=O)OC)cc2)nc(N2CCOCC2)n1,"14.1 µM [falling, single point]",
CC(=O)c1c(C)[nH]c(C(=O)NCc2ccc(F)cc2)c1C,"2.82 µM [rising, partial curve, poor fit]",
CC(C)N(C(=O)COC(=O)c1cc(Cl)cc(Cl)c1N)C(C)C,"29.1 µM [rising, single point]",
O=C(NCC(c1cccs1)N1CCOCC1)c1cc(-c2ccc(F)cc2)nc2ccccc12 (stereo unspecified),"35.5 µM [falling, single point]",
COCCCn1c(=O)c2ccccc2n(Cc2ccccc2C)c1=O,"35.5 µM [rising, single point]",
COc1ccccc1CNC(=O)C1Cc2ccccc2C(=O)O1 (stereo unspecified),"20 µM [falling, single point]",
Cn1cccc1C(=O)N1CCN(c2cccc(C(F)(F)F)c2)CC1,"29.1 µM [rising, single point]",
O=C(c1cnc2nc3ccccc3n2c1)c1cc(F)ccc1O,"4.47 µM [falling, partial curve, poor fit]",
CN(C)CCNC(=O)c1onc(CSc2ccc(F)c(F)c2)c1C(=O)NCCN(C)C,"35.5 µM [falling, single point]",
C=CCSc1ncnc2sc(C)c(C)c12,"16.4 µM [rising, partial curve]",
CNC(=O)N(C1=NCC(C)S1)c1ccc(F)cc1F (stereo unspecified),"2.06 µM [rising, partial curve, poor fit]",
COc1cc(/C=C(\C#N)C(=O)c2ccc(O)c(O)c2)cc(I)c1O,"29.1 µM [falling, single point]",
COc1ccc(C(=O)NCCNc2ccc([N+](=O)[O-])cc2)cc1OC,"6.31 µM [rising, partial curve, poor fit]",

# Pulled one by one from the list above:
Structure (SMILES),AC50 [1],AC50 [2]
COc1ccc(-n2c3c(cc(C(=O)Nc4cccc(C)n4)c2=O)C(=O)CC(C)(C)C3)cc1,"22.4 µM [falling, single point]",
Cc1cccc(Cn2c(N(C)CCO)nc3c2c(=O)[nH]c(=O)n3C)c1,"6.51 µM [rising, single point]",

# From PubChem BioAssay AID493014 (National Center for Advancing Translational Sciences (NCATS), 2011)
